PubChem BioAssay AID1159578 | Peter MacCallum Cancer Centre – 2015

Purpose: 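siRNA pools altering how lymphatic endothelial cells close a scratch wound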 (primary screen)
Cells: human lymphatic endothelial cells
Reagent: siRNA pool against human genes, 40 nM
Timing: 48 h after transfection
Measurement: 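High-content imaging of dye-stained cells in a scratch assay measures filled wound area and nuclei per well; duplicate means given as ratio to mock and robust z-score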
Reading the numbers: migration robust z-score: higher = faster migration into the scratch; migration relative to mock: higher = more scratch area covered than mock; nuclei per well: higher = more cells in the well
Rule for the call: 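Pools averaging fewer than 3300 nuclei are never called; remaining pools count as changed when migration robust z lies outside -2 to 2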
Calls: active = migration changed; inactive = no migration change, or too few cells
The whole screen tested about 18,000 reagents; shown is a part drawn at random. About 1,030 of them (5.7%) count as active. 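Inactive calls also include pools with fewer than 3300 nuclei, whose migration was not assessed.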 Raw values vary from plate to plate and are shown uncorrected. Entries without a mark were called inactive.

| gene symbol | migration robust z-score | migration class with cell-count check | migration relative to mock | nuclei per well, duplicate mean |
| --- | --- | --- | --- | --- |
| TSNAXIP1 | 0.76 | migration z between -2 and 2; enough cells | 1.08 | 5392 |
| AKIRIN1 | 1.02 | migration z between -2 and 2; enough cells | 1.15 | 4968 |
| SRSF7 | 0.38 | migration z between -2 and 2; enough cells | 0.98 | 7362 |
| MYL11 | -4.4 (active) | migration z below -2; enough cells | -0.26 | 6129 |
| SDC3 | 1.36 | migration z between -2 and 2; enough cells | 1.23 | 6272 |
| TRPM4 | 0.39 | migration z between -2 and 2; enough cells | 0.88 | 5122 |
| PPA1 | -0.96 | migration z between -2 and 2; enough cells | 0.62 | 4598 |
| MAS1 | 1.02 | migration z between -2 and 2; enough cells | 1 | 6168 |
| MARCHF6 | -0.68 | migration z between -2 and 2; enough cells | 0.68 | 4710 |
| TARDBP | -1.4 | migration z between -2 and 2; enough cells | 0.53 | 5107 |
| RPS15A | -3.36 (active) | migration z below -2; enough cells | 0.02 | 3308 |
| SLC38A5 | -0.19 | migration z between -2 and 2; enough cells | 0.84 | 5753 |
| PRKCZ | 0.2 | migration z between -2 and 2; enough cells | 0.84 | 6944 |
| NDUFB6 | 0.62 | migration z between -2 and 2; enough cells | 1.04 | 5326 |
| ZFAND2B | 0.88 | migration z between -2 and 2; enough cells | 1.11 | 4054 |
| POMZP3 | 0.69 | migration z between -2 and 2; enough cells | 1.06 | 6840 |
| MOB1B | 1.12 | migration z between -2 and 2; enough cells | 1.17 | 6698 |
| BACC1 | 0.78 | migration z between -2 and 2; enough cells | 1.09 | 5504 |
| ROBO1 | -2.31 (active) | migration z below -2; enough cells | 0.36 | 3861 |
| CCL8 | 0.32 | migration z between -2 and 2; enough cells | 0.97 | 5737 |
| TBX5 | -0.24 | migration z between -2 and 2; enough cells | 0.76 | 7482 |
| KCNMB1 | 0.96 | migration z between -2 and 2; enough cells | 0.99 | 5274 |
| TOMM22 | -0.94 | migration z between -2 and 2; enough cells | 0.64 | 5799 |
| ALDOA | -0.55 | under 3300 nuclei; migration not judged | 0.7 | 3120 |
| TENT4A | 0.68 | migration z between -2 and 2; enough cells | 0.94 | 6233 |
| C4A | 0.9 | migration z between -2 and 2; enough cells | 1.12 | 5402 |
| PDCD10 | -0.44 | migration z between -2 and 2; enough cells | 0.76 | 5052 |
| IFT25 | -1.13 | migration z between -2 and 2; enough cells | 0.59 | 4614 |
| CCL27 | -0.2 | migration z between -2 and 2; enough cells | 0.83 | 6189 |
| PCDHB5 | -0.22 | migration z between -2 and 2; enough cells | 0.82 | 5744 |
| CORO1A | 1.46 | migration z between -2 and 2; enough cells | 1.27 | 5827 |
| MAP3K15 | -1.32 | migration z between -2 and 2; enough cells | 0.55 | 4592 |
| SMG9 | -1.27 | migration z between -2 and 2; enough cells | 0.55 | 5466 |
| COL4A2 | 0.52 | migration z between -2 and 2; enough cells | 1.02 | 6064 |
| VPS50 | -0.68 | migration z between -2 and 2; enough cells | 0.71 | 6108 |
| MRPS6 | -0.69 | migration z between -2 and 2; enough cells | 0.7 | 6618 |
| ARMC8 | 0.6 | migration z between -2 and 2; enough cells | 1.04 | 5447 |
| CLCNKA | 0.57 | migration z between -2 and 2; enough cells | 0.92 | 5970 |
| UBE2G1 | -0.54 | migration z between -2 and 2; enough cells | 0.7 | 6325 |

Ordered by “nuclei per well, duplicate mean” (low to high): 2 of the entries above
| gene symbol | migration robust z-score | migration class with cell-count check | migration relative to mock | nuclei per well, duplicate mean |
| --- | --- | --- | --- | --- |
| RPS15A | -3.36 (active) | migration z below -2; enough cells | 0.02 | 3308 |
| TARDBP | -1.4 | migration z between -2 and 2; enough cells | 0.53 | 5107 |
